# Data taken from PubChem BioAssay AID493247 (Broad Institute, 2011).
# The shares of active, inactive and inconclusive entries below differ from those in the screen. Calls of active or inactive are those of the source.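 Rule for the calls: active = falling luminescence with a fitted half-effect concentration at most ten times the top dose in every repeat; inconclusive = repeats disagree, poor fit, or flat moderate signal drop; inactive = the rest.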
# Assay: cytotoxicity in NIH/3T3 mouse fibroblasts, dose response, cytotoxicity control, cell-based, mouse embryonic fibroblasts, dry powder, set 2 (AID 493247)
# Conditions: NIH/3T3 cytotoxicity, CellTiter-Glo ATP luminescence, 90 h; at 19.5 µM (top of the series)
row,Structure (SMILES),"activity change, negative = cytotoxic"
1,CN(Cc1ccccc1)C(=O)C1CCCN(Cc2ccc([N+](=O)[O-])cc2)C1 (stereo unspecified),inconclusive: -6.23%
2,CCCNC(=O)C1(C)CCCN(Cc2cccc(Oc3ccccc3)c2)C1 (stereo unspecified),inconclusive: -12.5%
3,COc1cc(CN2CCC(C(=O)NC(C)c3ccc(OC)c(OC)c3)CC2)cc(OC)c1 (stereo unspecified),inactive: -5.63%
4,COc1ccc(C(C)NC(=O)C2CCN(CCCc3ccccc3)CC2)cc1OC (stereo unspecified),inconclusive: -11.8%
5,COCCNC(=O)C1(C)CCCN(C(=O)c2ccc(OC)c(OC)c2)C1 (stereo unspecified),inconclusive: -5.64%
6,CCCN1CCC(N2CCCC(C(=O)N(C)CCc3ccc(OC)c(OC)c3)C2)CC1 (stereo unspecified),inconclusive: -10.5%
7,COc1ccc(CN2CCC(C(=O)NC3CCCC3)CC2)cc1OC,inconclusive: -3.73%
8,CCNC(=O)C1(C)CCCN(Cc2cccc3c2OCCO3)C1 (stereo unspecified),inconclusive: 13.1%
9,CCN(CC)C(=O)C1CCCN(Cc2cccc(Cl)c2)C1 (stereo unspecified),inconclusive: -3.71%
10,COCCNC(=O)C1(C)CCCN(C(=O)c2cc(OC)c(OC)c(OC)c2)C1 (stereo unspecified),inactive: -5.22%
11,COc1ccc(CCN2CC(C(=O)NCc3ccc(F)cc3)CC2=O)cc1OC (stereo unspecified),inactive: 11.9%

# Shown with tabs: part of the list above.
row	Structure (SMILES)	activity change, negative = cytotoxic
6	CCCN1CCC(N2CCCC(C(=O)N(C)CCc3ccc(OC)c(OC)c3)C2)CC1 (stereo unspecified)	inconclusive: -10.5%
9	CCN(CC)C(=O)C1CCCN(Cc2cccc(Cl)c2)C1 (stereo unspecified)	inconclusive: -3.71%
